Some of the results follow.
Experiments:
Test in all cases: log2 fold change, soluble protein after heating vs DMSO (PISA); higher = thermal stabilisation; K562 lysate, 10 uM; active = over 0.2 and 3.5 SD of the protein, either way, in both replicates (recomputed)
[1] = compound: C1=CC=C(C=C1)[C@H](COC2=CC3=C(C=C2)NC(=O)N3)NC(=O)C4=CC=CN(C4=O)CC5=CC(=C(C=C5)F)F
How it was run: (§1)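 Values give the log-two fold change in thermal stability against solvent controls, from duplicates. Crude K562 extract at 1 mg/mL protein, made by dounce homogenisation in PBS pH 7.4 with 1 mM MgCl2, was treated with 10 μM compound for 30 min. After 3 min heating across 48°C-58°C, aliquots were pooled, adjusted to 0.5% NP-40 at 4°C and centrifuged at 21,000xg for 90 min. The supernatant was measured by TMTpro 16plex LC-MS/MS with channel sums equalised.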

By UniProt entry, the sequences of proteins in these tests, tags left out. Where a name states a change or a piece, a line headed by the entry shows the natural chain unless it says otherwise.
UniProt P61024, whole entry, looked up: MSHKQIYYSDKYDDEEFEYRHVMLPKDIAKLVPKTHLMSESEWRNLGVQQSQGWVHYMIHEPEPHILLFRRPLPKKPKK
UniProt O14967: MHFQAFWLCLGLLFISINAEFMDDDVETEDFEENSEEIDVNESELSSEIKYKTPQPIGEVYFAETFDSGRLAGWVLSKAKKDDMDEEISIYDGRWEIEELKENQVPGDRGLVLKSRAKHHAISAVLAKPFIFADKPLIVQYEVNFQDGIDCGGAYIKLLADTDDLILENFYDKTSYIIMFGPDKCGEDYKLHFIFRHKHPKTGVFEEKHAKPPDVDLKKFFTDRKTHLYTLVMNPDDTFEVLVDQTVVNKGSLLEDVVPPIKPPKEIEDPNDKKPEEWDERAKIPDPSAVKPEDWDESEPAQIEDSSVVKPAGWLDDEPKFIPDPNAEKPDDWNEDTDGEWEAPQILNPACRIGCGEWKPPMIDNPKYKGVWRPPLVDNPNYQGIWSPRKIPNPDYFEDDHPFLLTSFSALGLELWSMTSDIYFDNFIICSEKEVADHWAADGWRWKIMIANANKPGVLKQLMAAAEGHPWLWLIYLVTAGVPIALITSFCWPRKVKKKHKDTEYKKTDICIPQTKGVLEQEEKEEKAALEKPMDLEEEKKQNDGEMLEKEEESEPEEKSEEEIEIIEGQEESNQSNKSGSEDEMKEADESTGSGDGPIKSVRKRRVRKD
UniProt P09496: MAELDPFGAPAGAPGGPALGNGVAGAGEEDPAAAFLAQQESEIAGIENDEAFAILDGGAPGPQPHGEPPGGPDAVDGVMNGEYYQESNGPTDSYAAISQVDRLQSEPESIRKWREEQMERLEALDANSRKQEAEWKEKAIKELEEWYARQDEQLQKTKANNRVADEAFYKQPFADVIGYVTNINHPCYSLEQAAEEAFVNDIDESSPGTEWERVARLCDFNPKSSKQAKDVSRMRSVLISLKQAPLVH
UniProt Q7Z7K0: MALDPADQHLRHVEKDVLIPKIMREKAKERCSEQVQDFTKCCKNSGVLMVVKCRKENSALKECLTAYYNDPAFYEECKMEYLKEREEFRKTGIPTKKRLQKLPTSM
UniProt O96005: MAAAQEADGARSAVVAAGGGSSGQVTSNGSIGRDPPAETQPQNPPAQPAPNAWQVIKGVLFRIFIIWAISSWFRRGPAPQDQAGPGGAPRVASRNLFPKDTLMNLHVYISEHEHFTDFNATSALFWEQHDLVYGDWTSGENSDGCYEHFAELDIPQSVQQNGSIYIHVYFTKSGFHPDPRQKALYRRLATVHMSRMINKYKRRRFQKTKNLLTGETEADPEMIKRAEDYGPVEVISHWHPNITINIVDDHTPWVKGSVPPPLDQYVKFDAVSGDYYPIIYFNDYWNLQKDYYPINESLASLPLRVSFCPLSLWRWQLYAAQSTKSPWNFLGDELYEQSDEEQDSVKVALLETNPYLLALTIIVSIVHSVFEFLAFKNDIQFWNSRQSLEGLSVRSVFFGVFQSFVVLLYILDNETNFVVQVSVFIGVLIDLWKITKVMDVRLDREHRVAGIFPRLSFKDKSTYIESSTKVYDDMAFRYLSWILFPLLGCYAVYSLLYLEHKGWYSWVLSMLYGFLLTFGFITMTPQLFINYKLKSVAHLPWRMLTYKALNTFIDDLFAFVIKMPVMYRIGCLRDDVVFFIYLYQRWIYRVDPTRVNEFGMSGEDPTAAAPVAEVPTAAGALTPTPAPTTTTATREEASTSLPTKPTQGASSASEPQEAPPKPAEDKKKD
UniProt Q00610: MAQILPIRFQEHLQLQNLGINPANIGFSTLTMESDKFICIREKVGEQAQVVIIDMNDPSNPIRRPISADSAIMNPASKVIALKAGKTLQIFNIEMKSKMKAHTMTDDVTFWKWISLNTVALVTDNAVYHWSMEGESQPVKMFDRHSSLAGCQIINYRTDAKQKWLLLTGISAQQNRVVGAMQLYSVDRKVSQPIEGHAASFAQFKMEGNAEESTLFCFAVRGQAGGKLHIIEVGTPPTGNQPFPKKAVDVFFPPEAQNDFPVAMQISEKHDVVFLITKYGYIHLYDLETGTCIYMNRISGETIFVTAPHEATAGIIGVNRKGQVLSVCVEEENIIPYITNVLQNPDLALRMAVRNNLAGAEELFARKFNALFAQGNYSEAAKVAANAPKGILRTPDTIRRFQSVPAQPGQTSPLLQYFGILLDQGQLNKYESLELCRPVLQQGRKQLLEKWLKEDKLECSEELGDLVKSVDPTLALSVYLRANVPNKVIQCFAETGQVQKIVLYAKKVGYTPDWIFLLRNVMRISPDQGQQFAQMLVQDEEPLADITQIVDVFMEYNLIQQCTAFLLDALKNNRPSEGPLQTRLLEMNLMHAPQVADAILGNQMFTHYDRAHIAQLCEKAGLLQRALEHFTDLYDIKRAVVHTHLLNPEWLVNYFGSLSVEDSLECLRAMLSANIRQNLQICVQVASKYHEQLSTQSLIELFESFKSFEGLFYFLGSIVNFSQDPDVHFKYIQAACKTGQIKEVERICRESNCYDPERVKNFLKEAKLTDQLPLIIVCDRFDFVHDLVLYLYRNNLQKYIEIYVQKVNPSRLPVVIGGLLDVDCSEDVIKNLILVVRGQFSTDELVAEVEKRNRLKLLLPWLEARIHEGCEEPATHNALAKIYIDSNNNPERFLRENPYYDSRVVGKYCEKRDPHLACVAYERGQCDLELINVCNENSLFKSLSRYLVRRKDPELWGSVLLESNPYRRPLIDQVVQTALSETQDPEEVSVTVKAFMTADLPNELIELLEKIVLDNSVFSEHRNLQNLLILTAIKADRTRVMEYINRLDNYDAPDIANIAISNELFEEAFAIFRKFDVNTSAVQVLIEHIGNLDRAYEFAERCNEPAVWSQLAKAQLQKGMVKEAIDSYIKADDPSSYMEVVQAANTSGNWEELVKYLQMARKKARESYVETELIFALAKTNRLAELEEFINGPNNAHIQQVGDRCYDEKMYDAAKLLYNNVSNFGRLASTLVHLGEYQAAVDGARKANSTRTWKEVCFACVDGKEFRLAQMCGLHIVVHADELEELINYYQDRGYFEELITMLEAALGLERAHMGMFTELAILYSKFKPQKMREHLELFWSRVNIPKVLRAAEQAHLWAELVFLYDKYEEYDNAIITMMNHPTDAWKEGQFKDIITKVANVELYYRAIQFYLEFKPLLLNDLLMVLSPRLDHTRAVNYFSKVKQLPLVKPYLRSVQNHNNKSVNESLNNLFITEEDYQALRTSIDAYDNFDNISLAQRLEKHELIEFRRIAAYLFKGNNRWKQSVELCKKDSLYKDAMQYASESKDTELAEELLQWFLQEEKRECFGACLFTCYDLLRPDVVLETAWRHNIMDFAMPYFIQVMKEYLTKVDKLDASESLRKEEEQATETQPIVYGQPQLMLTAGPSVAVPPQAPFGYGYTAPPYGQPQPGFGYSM
UniProt Q9Y259: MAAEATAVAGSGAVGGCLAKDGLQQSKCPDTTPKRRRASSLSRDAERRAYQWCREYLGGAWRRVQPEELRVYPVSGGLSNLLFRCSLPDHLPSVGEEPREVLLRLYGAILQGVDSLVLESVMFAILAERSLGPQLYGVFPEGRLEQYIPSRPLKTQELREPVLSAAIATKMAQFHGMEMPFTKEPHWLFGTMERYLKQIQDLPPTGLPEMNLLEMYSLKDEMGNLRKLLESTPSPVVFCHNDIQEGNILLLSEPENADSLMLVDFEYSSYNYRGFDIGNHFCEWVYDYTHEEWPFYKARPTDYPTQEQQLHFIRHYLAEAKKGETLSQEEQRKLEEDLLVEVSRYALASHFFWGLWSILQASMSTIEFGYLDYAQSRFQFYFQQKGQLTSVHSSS
UniProt P26374: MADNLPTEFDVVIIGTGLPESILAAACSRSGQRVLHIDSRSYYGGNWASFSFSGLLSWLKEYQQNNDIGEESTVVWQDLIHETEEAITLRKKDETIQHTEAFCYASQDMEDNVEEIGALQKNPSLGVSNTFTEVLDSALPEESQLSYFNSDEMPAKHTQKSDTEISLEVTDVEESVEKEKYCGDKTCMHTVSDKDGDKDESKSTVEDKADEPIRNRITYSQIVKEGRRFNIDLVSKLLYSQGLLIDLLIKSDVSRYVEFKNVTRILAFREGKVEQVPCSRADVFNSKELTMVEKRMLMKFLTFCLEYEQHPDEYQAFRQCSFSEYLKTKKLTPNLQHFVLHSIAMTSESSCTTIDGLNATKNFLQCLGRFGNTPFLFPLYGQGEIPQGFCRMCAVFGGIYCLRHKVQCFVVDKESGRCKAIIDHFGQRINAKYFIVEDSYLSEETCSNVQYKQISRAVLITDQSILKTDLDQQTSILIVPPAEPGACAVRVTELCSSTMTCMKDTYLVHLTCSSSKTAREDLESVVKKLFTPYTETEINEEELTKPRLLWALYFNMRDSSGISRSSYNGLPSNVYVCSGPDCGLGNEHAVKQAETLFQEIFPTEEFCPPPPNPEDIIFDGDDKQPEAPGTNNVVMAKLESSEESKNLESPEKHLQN
UniProt Q9NZ45: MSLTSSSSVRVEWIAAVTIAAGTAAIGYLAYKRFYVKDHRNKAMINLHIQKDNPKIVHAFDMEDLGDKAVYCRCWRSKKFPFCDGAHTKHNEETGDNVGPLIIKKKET
UniProt Q12873: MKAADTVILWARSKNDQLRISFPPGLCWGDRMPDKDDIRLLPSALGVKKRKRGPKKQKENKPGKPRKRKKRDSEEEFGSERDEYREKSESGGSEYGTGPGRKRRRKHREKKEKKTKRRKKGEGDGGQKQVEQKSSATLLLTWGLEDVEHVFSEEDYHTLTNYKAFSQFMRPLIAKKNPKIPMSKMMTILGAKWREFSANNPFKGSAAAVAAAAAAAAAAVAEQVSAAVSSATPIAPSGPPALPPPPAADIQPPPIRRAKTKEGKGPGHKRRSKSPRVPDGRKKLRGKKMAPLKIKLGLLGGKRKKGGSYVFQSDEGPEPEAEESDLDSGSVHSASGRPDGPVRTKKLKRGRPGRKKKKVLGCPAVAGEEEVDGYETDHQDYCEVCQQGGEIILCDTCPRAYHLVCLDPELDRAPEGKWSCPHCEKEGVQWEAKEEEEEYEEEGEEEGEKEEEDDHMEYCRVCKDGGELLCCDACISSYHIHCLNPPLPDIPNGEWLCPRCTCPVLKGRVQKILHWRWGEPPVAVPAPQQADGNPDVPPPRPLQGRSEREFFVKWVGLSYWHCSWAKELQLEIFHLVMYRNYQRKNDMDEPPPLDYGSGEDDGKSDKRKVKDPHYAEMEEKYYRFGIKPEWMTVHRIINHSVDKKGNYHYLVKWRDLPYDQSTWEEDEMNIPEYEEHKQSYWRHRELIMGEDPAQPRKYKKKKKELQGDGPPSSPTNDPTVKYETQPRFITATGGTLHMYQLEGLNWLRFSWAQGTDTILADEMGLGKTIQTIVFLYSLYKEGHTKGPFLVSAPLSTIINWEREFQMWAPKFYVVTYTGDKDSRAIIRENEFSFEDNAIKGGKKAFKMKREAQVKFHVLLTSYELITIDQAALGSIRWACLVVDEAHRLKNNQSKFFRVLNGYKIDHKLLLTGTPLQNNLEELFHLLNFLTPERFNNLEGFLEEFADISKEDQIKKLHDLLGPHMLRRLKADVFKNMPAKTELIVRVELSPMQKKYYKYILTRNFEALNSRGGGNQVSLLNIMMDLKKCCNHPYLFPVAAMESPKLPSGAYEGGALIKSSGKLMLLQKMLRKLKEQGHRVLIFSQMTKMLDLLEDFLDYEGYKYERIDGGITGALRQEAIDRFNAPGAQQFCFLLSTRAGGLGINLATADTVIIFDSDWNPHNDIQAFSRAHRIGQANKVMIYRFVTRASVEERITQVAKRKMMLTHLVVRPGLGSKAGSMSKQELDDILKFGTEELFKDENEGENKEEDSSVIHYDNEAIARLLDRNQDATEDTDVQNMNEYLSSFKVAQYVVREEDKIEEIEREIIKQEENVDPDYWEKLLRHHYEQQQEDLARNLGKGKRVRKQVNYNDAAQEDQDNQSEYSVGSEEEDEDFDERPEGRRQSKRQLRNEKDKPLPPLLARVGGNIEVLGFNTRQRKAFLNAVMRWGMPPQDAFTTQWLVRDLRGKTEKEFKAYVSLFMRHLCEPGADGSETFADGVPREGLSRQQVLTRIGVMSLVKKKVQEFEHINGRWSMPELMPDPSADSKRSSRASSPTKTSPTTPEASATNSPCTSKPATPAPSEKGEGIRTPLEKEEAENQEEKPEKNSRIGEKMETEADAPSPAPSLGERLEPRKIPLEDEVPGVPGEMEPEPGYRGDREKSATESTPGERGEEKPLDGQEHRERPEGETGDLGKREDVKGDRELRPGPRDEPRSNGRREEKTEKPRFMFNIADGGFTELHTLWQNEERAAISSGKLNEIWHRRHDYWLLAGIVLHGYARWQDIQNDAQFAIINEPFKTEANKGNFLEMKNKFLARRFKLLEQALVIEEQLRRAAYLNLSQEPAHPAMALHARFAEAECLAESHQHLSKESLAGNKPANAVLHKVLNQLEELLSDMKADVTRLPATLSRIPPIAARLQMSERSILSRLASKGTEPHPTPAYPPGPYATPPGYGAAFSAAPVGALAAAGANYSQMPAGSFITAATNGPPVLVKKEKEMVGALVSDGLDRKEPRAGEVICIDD

[2] = compound: CC1=C(SC2=C1C(=N[C@H](C3=NN=C(N32)C)CC(=O)N)C4=CC=C(C=C4)Cl)C
How it was run: as §1

[3] = compound: CC1=C2C(=CC=C1)N=C(N(C2=O)C3=CC=CC=C3C)CN4C=NC5=C(N=CN=C54)N
How it was run: as §1

[4] = compound: Cc1sc2c(c1C)C(c1ccc(Cl)cc1)=N[C@@H](CC(=O)OC(C)(C)C)c1nnc(C)n1-2
How it was run: as §1

[5] = compound: c1ccc([C@@H]2C[C@H]2NC2CCNCC2)cc1
How it was run: as §1

Measured: log2 fold change

CLINT1 isoform 3 (UniProt Q14677)
inactive: [1] 0.051 | [2] -0.049 | [3] -0.006 | [4] 0.018 | [5] 0.009

CHRAC1 (UniProt Q9NRG0)
inactive: [1] 0.03 | [2] 0.068 | [3] 0.025 | [4] 0.043 | [5] 0.083

CIC (UniProt I3L1Q4)
inactive: [1] 0.006 | [2] 0.225

CMPK1 (UniProt P30085)
inactive: [1] 0.014 | [2] 0.008 | [3] -0.041 | [4] -0.056 | [5] -0.01

CHTOP isoform 3 (UniProt Q9Y3Y2)
inactive: [1] 0.03 | [2] -0.015 | [3] 0.046 | [4] 0.071 | [5] 0.011

CLIC6 (UniProt Q96NY7)
inactive: [1] 0.098 | [2] 0 | [3] 0.116 | [4] -0.01 | [5] -0.046

CHD7 (UniProt Q9P2D1)
inactive: [1] -0.052 | [2] -0.02 | [3] 0.007 | [4] -0.016 | [5] 0.022

CKS1B (UniProt P61024)
inactive: [1] 0.017 | [2] -0.074 | [3] -0.058 | [4] 0.108 | [5] 0.194

CHMP1B (UniProt Q7LBR1)
inactive: [1] -0.045 | [2] 0.019 | [3] -0.003 | [4] -0.029 | [5] 0.036

CLGN (UniProt O14967)
inactive: [1] 0.063 | [2] 0.047 | [3] 0.126 | [4] -0.011 | [5] -0.05

CLTA isoform 2 (UniProt P09496)
inactive: [1] -0.005 | [2] -0.05 | [3] -0.147 | [4] -0.008

CHCHD10 (UniProt Q8WYQ3)
inactive: [1] -0.033 | [2] 0.097 | [3] -0.004 | [4] -0.01 | [5] 0.031

CHCHD2 (UniProt Q9Y6H1)
inactive: [1] -0.123 | [2] -0.043 | [3] -0.015 | [4] 0.062 | [5] -0.01

CKAP2 (UniProt Q8WWK9)
inactive: [1] 0.052 | [2] 0.066 | [3] 0.001 | [4] -0.003 | [5] -0.021

CIAO1 (UniProt O76071)
inactive: [1] -0.086 | [2] 0.052 | [3] -0.022 | [4] -0.023 | [5] -0.023

CIAO2B (UniProt Q9Y3D0)
inactive: [1] 0.01 | [2] 0.04 | [3] -0.01 | [4] 0.054

CLCN6 isoform 5 (UniProt P51797)
inactive: [1] 0.003 | [2] 0.063 | [3] -0.059 | [4] -0.062

CLN6 (UniProt Q9NWW5)
inactive: [1] 0.067 | [2] -0.185 | [3] 0.022 | [4] -0.105

CLDND1 (UniProt Q9NY35)
inactive: [1] 0.007 | [2] -0.04 | [3] -0.024 | [4] -0.02 | [5] -0.054

CHID1 (UniProt Q9BWS9)
inactive: [1] 0.009 | [2] 0.027 | [3] 0.005 | [4] -0.029 | [5] 0.025

CLUAP1 (UniProt I3L2E1)
inactive: [1] -0.012 | [2] 0.079 | [3] 0.06

CKAP5 (UniProt Q14008)
inactive: [1] -0.008 | [2] -0.019 | [3] 0.01 | [4] 0.014 | [5] 0.048

CIZ1 (UniProt Q9ULV3)
inactive: [1] -0.007 | [2] -0.027 | [3] 0.002 | [4] -0.037 | [5] -0.02

CLYBL (UniProt Q8N0X4)
inactive: [1] -0.026 | [2] -0.007 | [3] -0.013 | [4] -0.032 | [5] -0.051

CMC1 (UniProt Q7Z7K0)
inactive: [1] 0.051 | [2] -0.003 | [3] 0.114 | [4] -0.046 | [5] -0.061

CLCC1 (UniProt Q96S66)
inactive: [1] 0.023 | [2] -0.014 | [3] 0.022 | [4] -0.007 | [5] -0.041

CHMP4C (UniProt Q96CF2)
inactive: [1] 0.086 | [2] 0.02 | [3] 0.022 | [4] -0.018 | [5] -0.171

CKB (UniProt P12277)
inactive: [1] -0.009 | [2] 0.013 | [3] -0.017 | [4] 0.024 | [5] 0.054

CHMP4A isoform 2 (UniProt Q9BY43)
inactive: [1] 0.035 | [2] -0.009 | [3] 0.007 | [4] -0.022 | [5] -0.152

CIP2A (UniProt Q8TCG1)
inactive: [1] -0.03 | [2] -0.002 | [3] -0.008 | [4] -0.021 | [5] 0.018

CLPTM1 (UniProt O96005)
inactive: [1] -0.044 | [2] -0.014 | [3] -0.058 | [4] -0.018 | [5] -0.072

CKMT2 (UniProt P17540)
inactive: [1] 0.014 | [2] 0.005 | [3] -0.058 | [4] -0.033 | [5] -0.029

CHD5 (UniProt Q8TDI0)
inactive: [1] -0.039 | [2] 0.003 | [3] -0.002 | [4] 0.085 | [5] 0.032

CLTC (UniProt Q00610)
inactive: [1] -0.005 | [2] 0.035 | [3] 0.045 | [4] 0.037 | [5] 0.053

CHKB (UniProt Q9Y259)
inactive: [1] -0.056 | [2] 0.007 | [3] 0.047 | [4] -0.034 | [5] -0.05

CLASP1 (UniProt Q7Z460)
inactive: [1] -0.019 | [2] 0.011 | [3] 0.022 | [4] -0.026 | [5] -0.007

CLTA (UniProt P09496)
inactive: [1] -0.051 | [2] -0.103 | [3] 0.001 | [4] 0.031 | [5] 0.027

CMIP (UniProt Q8IY22)
inactive: [1] -0.012 | [2] -0.006 | [3] -0.002 | [4] -0.029 | [5] 0.032

CLTB isoform 2 (UniProt P09497)
inactive: [1] 0.026 | [2] -0.037 | [3] -0.024 | [4] -0.043 | [5] -0.017

CHML (UniProt P26374)
inactive: [1] 0.011 | [2] -0.027 | [3] 0.01 | [4] 0.016 | [5] -0.03

CHD6 (UniProt Q8TD26)
inactive: [1] -0.05 | [2] -0.009 | [3] 0.327 | [4] 0.119 | [5] -0.02

CHEK1 (UniProt O14757)
inactive: [1] 0.025 | [2] 0.021 | [3] 0.006 | [4] -0.04 | [5] 0

CIT isoform 4 (UniProt O14578)
inactive: [1] -0.023 | [2] 0.071 | [3] 0.021 | [4] 0.007 | [5] -0.001

CHAF1B (UniProt Q13112)
inactive: [1] 0 | [2] 0.025 | [3] 0.008 | [4] -0.005 | [5] -0.05

CHAF1A (UniProt Q13111)
inactive: [1] -0.099 | [2] 0.136 | [3] 0.041 | [4] 0.017 | [5] 0.022

CHCHD1 (UniProt Q96BP2)
inactive: [1] -0.026 | [2] 0.024 | [3] -0.04 | [4] -0.091
active: [5] 0.627

CHD2 (UniProt O14647)
inactive: [1] -0.007 | [2] -0.238 | [3] -0.053 | [4] 0.054 | [5] -0.038

CHCHD3 (UniProt Q9NX63)
inactive: [1] -0.015 | [2] 0.039 | [3] -0.01 | [4] 0.017 | [5] 0.015

CISD1 (UniProt Q9NZ45)
inactive: [1] 0.043 | [2] 0.021 | [3] -0.025 | [4] -0.025 | [5] 0

CLUH (UniProt O75153)
inactive: [1] 0.03 | [2] 0.008 | [3] 0.021 | [4] -0.02 | [5] -0.058

CHMP1A (UniProt Q9HD42)
inactive: [1] 0.004 | [2] 0.007 | [3] -0.005 | [4] 0.057 | [5] 0.009

CMTR1 (UniProt Q8N1G2)
inactive: [1] 0.011 | [2] -0.008 | [3] 0.018 | [4] 0.004 | [5] 0.009

CIAPIN1 (UniProt Q6FI81)
inactive: [1] 0.003 | [2] 0 | [3] -0.014 | [4] -0.026 | [5] -0.04

CHD3 isoform 3 (UniProt Q12873)
inactive: [1] -0.009 | [2] 0.027 | [3] 0.024 | [4] 0.035 | [5] 0.038

Fetched one by one from the list above, two records:
CIAO1 (UniProt O76071)
inactive: [1] -0.086 | [2] 0.052 | [3] -0.022 | [4] -0.023 | [5] -0.023

CIP2A (UniProt Q8TCG1)
inactive: [1] -0.03 | [2] -0.002 | [3] -0.008 | [4] -0.021 | [5] 0.018
